Laboratory results as given in PubChem BioAssay AID2685 (National Center for Advancing Translational Sciences (NCATS), 2010).
The list shows a part of the results. Shown are side measurements of this screen, not its main read-out; they come without a call. The list favours compounds with an active or inconclusive main result. Potencies come from curve fits of mixed quality, noted in brackets.

Test: qHTS Assay for Lipid Storage Modulators in Drosophila S3 Cells;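 on cell number change: cells counted by Cell Tracker Red CMTPX staining in the red channel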
Details: BODIPY lipid droplet fluorescence, 18-24 h; for cell number change: measured here: cell count max response, cells fed with added oleic acid
Method in brief: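 Drosophila S3 cells got compounds at several concentrations plus oleic acid (400 uM solution). Laser-scanning cytometry with 488 nm excitation read lipid droplets at 500-530 nm and cells at 575-640 nm. Percent activity was relative to 20 uM Triacsin C.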

[1] = measured here: cell number channel AC50, cells fed with added oleic acid
[2] = measured here: lipid fluorescence (Fed channel) AC50, cells fed with added oleic acid

| SMILES | cell number change | AC50 [1] | AC50 [2] |
| --- | --- | --- | --- |
| Cc1nn(-c2ccccc2)c2[nH]c(=O)c(CNCc3ccc4c(c3)OCO4)cc12 | -1.69% | 0.58 µM [rising, partial curve] |  |
| CCOC(=O)C(C)S(=O)(=O)c1ccc(C(F)(F)F)cn1 (centres undefined) | -98.2% | 25.9 µM [falling, partial curve] | 23.1 µM [falling, partial curve] |
| Cc1ccc2nc(NC(=O)CSCC(=O)OCC(=O)c3ccccc3)sc2c1 | 7.51% |  | 0.731 µM [rising, single point] |
| NC(=O)c1ccccc1N=Cc1ccc2ccccc2c1 | -58.3% | 18.4 µM [falling, partial curve] | 6.51 µM [falling, partial curve, poor fit] |
| O=C(c1ccc(-n2c(SCc3cccc(F)c3)nc3ccccc3c2=O)cc1)N1CCOCC1 | 32.5% | 5.17 µM [rising, partial curve] | 16.4 µM [rising, partial curve, poor fit] |
| C=CCN(C(=O)Cn1ncc2c1-c1cc(C)ccc1OC2)c1ccccc1 | 24.6% |  | 23.1 µM [rising, single point] |
| O=C(c1ccc(S(=O)(=O)c2ccccc2Cl)c([N+](=O)[O-])c1)N1CCN(Cc2ccccc2)CC1 | -17.2% |  | 29.1 µM [falling, single point] |
| O=C(COc1ccccc1)Nc1cccc(S(=O)(=O)N2CCCC2)c1 | -5.53% | 6.51 µM [falling, single point] |  |
| CCOC(OCC)c1cn(Cc2ccc3c(c2)C(=O)c2ccccc2C3=O)nn1 | -12.3% |  | 18.4 µM [falling, single point] |
| O=C(C[n+]1cccc(CO)c1)Nc1nc2ccccc2s1 | -26.1% |  | 18.4 µM [falling, single point] |
| CCOc1ccc(-n2c(=S)sc3c(=O)n(-c4ccccc4)c(SCC(=O)O)nc32)cc1 | 62% | 5.8 µM [rising, full curve] |  |
| Cc1ccc(CN2CCN(/N=C/c3cc(Br)ccc3O)CC2)cc1 | -11.3% | 0.058 µM [falling, full curve, poor fit] |  |
| O=C(NCc1cccc(Cl)c1)c1cnccn1 | -1.17% |  | 29.1 µM [falling, single point] |
| O=C(CSc1nc2c(sc3ccccc32)c(=O)n1CCO)NCC1CCCO1 (centres undefined) | 5.87% |  |  |
| O=C(Nc1ccccc1N1CCCC1)C1CCN(S(=O)(=O)c2ccccc2C(F)(F)F)CC1 | -39.1% | 13 µM [falling, partial curve, poor fit] | 29.1 µM [falling, single point] |
| COC(=O)c1ccccc1S(=O)(=O)N(CCCO)Cc1cc2c(C)ccc(C)c2[nH]c1=O |  | 0.58 µM [rising, full curve] | 0.58 µM [rising, full curve] |
| CC1CCC(NC(=O)CCN2C(=O)C3C4C=CC(C4)C3C2=O)CC1 (centres undefined) | 8.26% |  |  |
| CCC(C)(C)C1CCc2[nH]nc(C(=O)NCCNC(=O)OC(C)(C)C)c2C1 (centres undefined) | -0.132% |  | 0.231 µM [falling, full curve, poor fit] |
| O=C(O)C1CSC2c3ccccc3C(=O)N12 (centres undefined) | -134% | 29.1 µM [falling, single point] | 29.1 µM [falling, partial curve] |

| SMILES | cell number change | AC50 [1] | AC50 [2] |
| --- | --- | --- | --- |
| Cc1c(Cl)cccc1N1C(=O)C2ON(c3ccccc3)C(c3cccnc3)C2C1=O (centres undefined) | 60.6% | 29.1 µM [rising, single point] | 29.1 µM [rising, single point] |
| CC1CCc2c(sc3nc(C(C)(C)C)nc(N4CCN(C(=O)CCl)CC4)c23)C1 (centres undefined) | -52.3% | 20.6 µM [falling, partial curve] | 20.6 µM [falling, partial curve] |
| COc1ccc(CNCCC2(O)CC(C)N(C)CC2C)cc1OC (centres undefined) | 29.4% |  |  |
| COc1ccc(CCNS(=O)(=O)c2cc(C(=O)O)c(Cl)cc2Cl)cc1 | 23.2% |  | 0.146 µM [rising, partial curve, poor fit] |
| COc1ccc2sc(N(CCCN(C)C)C(=O)c3ccc(S(=O)(=O)N(C)C4CCCCC4)cc3)nc2c1 | 12.6% |  | 0.651 µM [falling, single point] |
| COc1cccc(NC(=O)CN(Cc2ccccc2)S(C)(=O)=O)c1 | 6.69% |  |  |
| CCCC(=Nc1ccc(N)cc1)C1=C(O)C(C(=O)OC)C(C)(C)CC1=O (centres undefined) | 22.4% | 1.64 µM [falling, partial curve] | 11.6 µM [falling, partial curve] |
| Cc1cc(C)nc(NS(=O)(=O)c2ccc(-n3cccc3)cc2)n1 |  |  | 1.3 µM [falling, partial curve] |
| Cc1c(NC(=O)Nc2ccc3c(c2)OCO3)c(=O)n(-c2ccccc2)n1C | 21% |  | 6.51 µM [falling, single point] |
| Cc1nnc(N/N=C/c2c(O)n(-c3cccc(C(F)(F)F)c3)c(=O)c3ccccc23)[nH]c1=O | 14.3% | 6.51 µM [falling, single point] |  |
| COc1ccccc1NC(=O)CCC(=O)OCc1ccc([N+](=O)[O-])cc1 | -14.4% |  | 0.731 µM [falling, full curve] |
| Cc1ccc(NC(=O)CN2C(=O)C3C4C=CC(C4)C3C2=O)cc1 (centres undefined) | 10.3% | 0.00517 µM [falling, full curve, poor fit] |  |
| COc1ccc(N(CC(=O)Nc2ccccc2C(=O)N2CCCC2)S(C)(=O)=O)cc1 | 22.5% |  | 0.58 µM [rising, single point] |
| O=C(CCc1nc2sc3c(c2c(=O)[nH]1)CCCC3)NCCc1ccccc1 | 0.534% |  | 0.116 µM [falling, full curve, poor fit] |
| CCCC(C)C(=O)NCc1ccncc1 (centres undefined) | -13.7% |  |  |
| CCOc1ccc(-c2[nH]ncc2Oc2cccc(OC)c2)c(O)c1 | -72.3% | 23.1 µM [falling, single point] | 3.66 µM [falling, full curve] |
| COC(=O)c1cccnc1-n1c(=O)c2cccnc2n(Cc2ccc([N+](=O)[O-])cc2)c1=O | -0.913% | 0.00461 µM [falling, full curve, poor fit] | 0.00461 µM [falling, full curve, poor fit] |
| C#CCOC(=O)/C(=C/C=C/c1ccccc1)NC(=O)c1ccccc1 |  |  | 0.146 µM [rising, full curve, poor fit] |
| COC(=O)C(NC(C)=O)(Nc1sc2c(c1C(N)=O)CCCC2)C(F)(F)F (centres undefined) | 35.6% | 29.1 µM [rising, single point] | 0.58 µM [rising, single point] |

| SMILES | cell number change | AC50 [1] | AC50 [2] |
| --- | --- | --- | --- |
| CNC(=O)NC(=O)C(OC(=O)Cc1cccc(C(F)(F)F)c1)c1ccccc1 (centres undefined) | 2.94% |  | 29.1 µM [rising, single point] |
| O=C(NCC(=O)N1CCN(c2ccccc2O)CC1)c1ccc2ccccc2c1 | 7.92% | 0.00731 µM [rising, full curve, poor fit] |  |
| COC(=O)C1=C(C)N(c2ccccc2)C(=S)NC1c1ccccc1C(F)(F)F (centres undefined) | 20.3% | 2.91 µM [rising, single point] |  |
| CC(=NCC1CCCO1)c1c(O)[nH]c(=O)[nH]c1=O (centres undefined) | 0.782% |  | 20.6 µM [falling, partial curve] |
| CCOC(=O)CSC1=C(C#N)C(c2ccccc2OC)CC(=O)N1 (centres undefined) | -34.9% | 1.84 µM [falling, full curve] | 2.06 µM [falling, full curve] |
| Cc1ccc(C(=O)Nc2ccccc2NC(=O)c2ccc(C)o2)o1 | -7.28% |  |  |
| CC(C)N1CCc2c(sc(NC(=O)c3cc(-c4cccs4)nc4ccccc34)c2C(N)=O)C1 | 23.6% |  | 6.51 µM [falling, partial curve] |
| CCOc1ccc(CN2CCN(C3CCC3)CC2CCO)cc1 (centres undefined) | 4.69% |  | 0.13 µM [falling, full curve, poor fit] |
| C(=C\c1nc(N2CCCCCC2)c2ccccc2n1)/c1ccccc1 | -38.8% | 18.4 µM [falling, single point] | 16.4 µM [falling, single point] |
| O=C(O)CCc1ccc(-c2ccc(F)cc2)n1CCC(=O)O | -35.8% | 3.66 µM [falling, full curve] | 16.4 µM [falling, single point] |
| COc1ccc(C2NCCO2)cc1OC (centres undefined) | 15% | 2.31 µM [falling, single point] |  |
| O=C(Cc1c(O)c2ccccc2oc1=O)c1ccc(F)cc1 | 38.4% |  |  |
| Cc1ccc(C(=O)N2CCN(c3cccc(C)c3C)CC2)o1 | -3.87% |  | 6.51 µM [rising, single point] |
| O=C1C=C(c2cc(C(F)(F)F)cc(C(F)(F)F)c2)C[C@@H](c2ccc(Cl)cc2)C1 | -54.8% | 6.51 µM [falling, partial curve] | 5.8 µM [falling, partial curve] |
| O=S(=O)(Cc1ccc(Cl)cc1)Nc1ccc2c(c1)OCO2 | -23.1% | 1.46 µM [falling, full curve, poor fit] | 0.13 µM [falling, full curve] |
| COc1ccc(Cl)cc1NC(=O)Cn1cccc1 | 13.3% |  |  |
| O=C(NNC1OC(CO)C(O)C(O)C1O)c1cccc(Br)c1 (centres undefined) | 46.4% | 29.1 µM [rising, single point] | 20.6 µM [rising, single point] |
| Cn1c(CC(=O)Nc2ccccc2F)nnc1SCC(=O)NC1CCCC1 | -13.2% | 0.731 µM [rising, single point] |  |
